Measurements taken from PubChem BioAssay AID2685 (National Center for Advancing Translational Sciences (NCATS), 2010).
The other results are listed elsewhere or left out. Further columns of the screen follow, without active or inactive calls. Compounds called inactive in the main read-out are mostly missing here. The note in brackets gives the kind of curve behind each potency; many fits are weak.

Experiment: qHTS Assay for Lipid Storage Modulators in Drosophila S3 Cells;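 for cell number change: cells counted by Cell Tracker Red CMTPX staining in the red channel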
Conditions: BODIPY lipid droplet fluorescence, 18-24 h; for cell number change: measured here: cell count max response, cells fed with added oleic acid
How it was run: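 Drosophila S3 cells loaded with oleic acid (400 uM, as added) and compounds at several concentrations; lipid droplets imaged by 488-nm laser-scanning cytometry, 500–530 nm intensity and object ratio to cell channel. Percent activity normalized to 20 uM Triacsin C.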

[1] = measured here: lipid fluorescence (Fed channel) AC50, cells fed with added oleic acid
[2] = measured here: cell number channel AC50, cells fed with added oleic acid

| SMILES | cell number change [%] | AC50 [1] | AC50 [2] |
| --- | --- | --- | --- |
| CCN1C=C(Cc2cccs2)C2=C(C1)C(c1cccs1)C(C#N)=C(N)O2 (stereo not given) | -21.1 | 1.64 µM [rising, partial curve] |  |
| O=C(O)CSc1nc(-c2ccccc2)cc(=O)[nH]1 | -14.8 |  | 0.0326 µM [falling, full curve, poor fit] |
| COc1ccc(-n2c(Cc3cccn3C)nnc2SCC(=O)Nc2ccc(C(C)=O)cc2)cc1 | 94.1 | 29.1 µM [rising, single point] | 29.1 µM [rising, single point] |
| O=C(Nc1ccc2[nH]c(=O)[nH]c2c1)c1ccc(Cl)c(Cl)c1 | -4.86 |  | 0.517 µM [rising, full curve, poor fit] |
| Fc1ccccc1CNCCC(Cc1ccccc1)c1ccc2c(c1)OCO2 (stereo not given) | -61.4 | 16.4 µM [falling, partial curve] | 20.6 µM [falling, single point] |
| C=CCSc1nccc(-c2nn(-c3ccc(C)cc3)ccc2=O)n1 | -27.9 |  |  |
| NS(=O)(=O)c1ccc(N/N=C/c2ccccc2Br)cc1 | 13.3 | 6.51 µM [rising, partial curve, poor fit] |  |
| COc1cccc(C2/C(=C(/O)c3ccc4c(c3)CC(C)O4)C(=O)C(=O)N2CCCn2ccnc2)c1 (stereo not given) | 10.7 |  |  |
| O=S(=O)(Nc1ccccc1F)c1ccc(Cl)nc1 | 16.6 | 1.84 µM [rising, full curve] |  |
| O=C(NC1CCCC1)C(c1ccco1)N(C(=O)c1csnn1)c1ccccc1 (stereo not given) | -21.9 | 0.206 µM [rising, single point] |  |
| CC(=O)c1ccc(OCCCC(=O)Nc2ccc3c(c2)OCCO3)cc1 | -14.2 | 6.51 µM [falling, full curve, poor fit] |  |
| CC(=O)c1ccc(S(=O)(=O)N2CCN(C(=O)CSc3ccc(C)c(C)c3)CC2)cc1 | 4.62 |  |  |
| COc1ccc(C(Nc2ccccn2)c2oc(CO)cc(=O)c2O)cc1 (stereo not given) | -0.609 | 6.51 µM [falling, single point] | 6.51 µM [falling, single point] |
| OC(c1ccc(F)cc1)(C1CCCCC1)C(CN1CCOCC1)c1ccccc1 (stereo not given) | 3.28 | 29.1 µM [rising, single point] |  |
| CC1(C)CC(NC(=S)Nc2ccc(S(N)(=O)=O)cc2)CC(C)(C)N1 | 10 |  |  |
| Cc1ccc(S(=O)(=O)n2cnc3cc([N+](=O)[O-])ccc32)c(C)c1 |  | 2.31 µM [rising, partial curve] |  |
| CCN1CCN(C(=O)c2c(-c3ccccc3)noc2C)CC1 | 8.33 |  |  |
| COc1ccc(C)cc1NC(=O)n1ncc2cc(Cl)ccc21 | -17.7 |  |  |
| O=C(NC1CCCC1)c1nc2c(nnn2Cc2cccc(Cl)c2)c(=O)[nH]1 | 33.5 |  |  |
| CN1CC(=O)N=C1N | 0.872 | 29.1 µM [falling, single point] |  |

| SMILES | cell number change [%] | AC50 [1] | AC50 [2] |
| --- | --- | --- | --- |
| CC(CC(C)C(=O)N1CCOCCN(C(=O)C(C)CC(C)C(=O)O)CCOCC1)C(=O)O (stereo not given) | -1.75 | 20.6 µM [falling, partial curve] | 0.146 µM [rising, full curve, poor fit] |
| CCN(CC)S(=O)(=O)c1ccc(N2CCCC2)c(NC(=O)Cc2ccc(OC)cc2)c1 | 7.09 | 0.58 µM [rising, single point] | 2.06 µM [rising, partial curve] |
| Cc1cc(NC(=O)CN2CCC(n3nnc4cc(C(F)(F)F)ccc43)CC2)no1 | -17.8 | 13 µM [rising, single point] |  |
| CCOC(=O)Cc1csc(NC(=O)NC2(C(F)(F)F)Oc3ccccc3O2)n1 | -30.8 |  | 32.6 µM [falling, single point] |
| CCc1ccc(-c2cc3c(=O)n(CC(=O)NCCCN4CCN(CC)CC4)nc(C)n3n2)cc1 | 12.8 | 6.51 µM [rising, partial curve, poor fit] |  |
| O=C(Nc1ccccc1)NC1(C(=O)NCc2ccc3c(c2)OCO3)CCCCC1 | 11.4 |  | 0.164 µM [falling, full curve, poor fit] |
| CN(C)c1cccc2c(/C=N/O)ccc(N(C)C)c12 | -38 |  | 29.1 µM [falling, single point] |
| Clc1cc2c(c(CSc3nc4ccccc4n4cccc34)c1)OCOC2 | -56.5 | 0.411 µM [rising, full curve] | 32.6 µM [falling, partial curve, poor fit] |
| CC(OC(=O)c1cc(Br)ccc1O)C(=O)Nc1ccc(S(=O)(=O)N2CCCC2)cc1 (stereo not given) | -33.8 |  | 13 µM [falling, partial curve] |
| CC(=O)NCc1nc2ccccc2n1Cc1ccccc1C |  |  | 6.51 µM [falling, single point] |
| O=c1[nH]c(SCc2nc3ccccc3n2Cc2ccccc2)nc2ccccc12 | -132 |  | 5.17 µM [falling, single point] |
| NCCN1CCN(CCN)CC1 | -109 | 11.6 µM [falling, partial curve] | 23.1 µM [falling, single point] |
| O=C(OCCN1C(=O)c2cccc3c(N4CCOCC4)ccc(c23)C1=O)c1cccc(Cl)c1 | -48 |  | 23.1 µM [falling, single point] |
| COc1ccccc1NC(=O)Cn1c(=O)n(-c2ccccc2)c(=O)c2oc3ccccc3c21 | 16.6 |  |  |
| CNC(=O)n1ccc(C(=O)N2CCCCC2)n1 | -11.2 | 1.16 µM [falling, partial curve] |  |
| COc1ccc2oc(C(=O)N(C)Cc3ccc4c(c3)OCCO4)c(C)c2c1 | 27.4 | 20.6 µM [rising, single point] |  |
| O=C(O)c1ccc2c(=O)n3c(nc2c1)/C(=C/c1ccccc1OC(F)F)CC3 | -35.5 |  | 1.16 µM [falling, full curve, poor fit] |
| Cc1ccccc1NC(=S)NCc1ccc2c(c1)OCO2 | -8.58 | 16.4 µM [falling, single point] |  |
| Cc1ccc(NC(=O)C2COc3ccccc3O2)cc1S(=O)(=O)N1CCCCC1 (stereo not given) | -7.68 | 0.164 µM [falling, full curve, poor fit] |  |
